Primary screen of a compound library

The chains behind the UniProt entries cited, without tags or fusion partners. Residues count along the entry.
UniProt Q4DA54, 1-478: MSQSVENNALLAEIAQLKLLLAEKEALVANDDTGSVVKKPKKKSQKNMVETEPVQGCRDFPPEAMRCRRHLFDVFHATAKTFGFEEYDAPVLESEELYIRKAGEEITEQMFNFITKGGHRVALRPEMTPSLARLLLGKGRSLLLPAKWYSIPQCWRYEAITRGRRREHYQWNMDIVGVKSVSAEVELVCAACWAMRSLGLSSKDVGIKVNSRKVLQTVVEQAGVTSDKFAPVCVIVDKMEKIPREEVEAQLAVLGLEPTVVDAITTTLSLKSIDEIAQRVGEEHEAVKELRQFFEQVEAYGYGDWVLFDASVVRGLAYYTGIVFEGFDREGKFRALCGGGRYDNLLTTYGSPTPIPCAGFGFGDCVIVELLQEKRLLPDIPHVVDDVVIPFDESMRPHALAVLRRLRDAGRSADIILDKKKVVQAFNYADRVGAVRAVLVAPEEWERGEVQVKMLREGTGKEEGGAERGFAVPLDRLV
UniProt P9WPC5, whole entry: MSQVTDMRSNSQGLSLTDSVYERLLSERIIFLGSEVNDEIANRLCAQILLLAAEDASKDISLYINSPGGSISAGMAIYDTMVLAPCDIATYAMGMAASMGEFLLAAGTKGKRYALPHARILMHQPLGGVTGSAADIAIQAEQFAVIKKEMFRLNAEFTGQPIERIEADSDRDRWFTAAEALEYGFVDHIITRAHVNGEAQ
UniProt P9WPC3, whole entry partner: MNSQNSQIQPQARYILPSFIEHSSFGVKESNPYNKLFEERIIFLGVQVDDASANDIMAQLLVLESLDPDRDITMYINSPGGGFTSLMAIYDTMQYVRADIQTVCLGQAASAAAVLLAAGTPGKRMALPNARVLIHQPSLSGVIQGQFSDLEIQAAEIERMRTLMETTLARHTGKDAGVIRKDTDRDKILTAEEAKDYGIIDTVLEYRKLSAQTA
UniProt Q8IDJ8, 1-583: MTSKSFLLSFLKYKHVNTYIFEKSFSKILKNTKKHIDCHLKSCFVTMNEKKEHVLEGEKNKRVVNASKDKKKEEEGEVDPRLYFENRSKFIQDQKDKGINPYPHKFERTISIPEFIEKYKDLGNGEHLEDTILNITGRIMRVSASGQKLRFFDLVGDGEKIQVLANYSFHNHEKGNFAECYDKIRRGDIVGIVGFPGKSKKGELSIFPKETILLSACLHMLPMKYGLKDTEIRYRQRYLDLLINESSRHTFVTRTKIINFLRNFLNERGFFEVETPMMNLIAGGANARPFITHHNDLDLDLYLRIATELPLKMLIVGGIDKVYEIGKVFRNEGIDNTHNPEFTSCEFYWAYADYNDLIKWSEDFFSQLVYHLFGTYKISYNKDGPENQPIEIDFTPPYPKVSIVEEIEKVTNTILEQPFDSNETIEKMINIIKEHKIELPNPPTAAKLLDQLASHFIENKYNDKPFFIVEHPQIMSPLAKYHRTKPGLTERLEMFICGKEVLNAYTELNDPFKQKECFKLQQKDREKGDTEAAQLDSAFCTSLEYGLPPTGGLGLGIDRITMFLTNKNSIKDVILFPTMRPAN
UniProt A4I591, 1-473: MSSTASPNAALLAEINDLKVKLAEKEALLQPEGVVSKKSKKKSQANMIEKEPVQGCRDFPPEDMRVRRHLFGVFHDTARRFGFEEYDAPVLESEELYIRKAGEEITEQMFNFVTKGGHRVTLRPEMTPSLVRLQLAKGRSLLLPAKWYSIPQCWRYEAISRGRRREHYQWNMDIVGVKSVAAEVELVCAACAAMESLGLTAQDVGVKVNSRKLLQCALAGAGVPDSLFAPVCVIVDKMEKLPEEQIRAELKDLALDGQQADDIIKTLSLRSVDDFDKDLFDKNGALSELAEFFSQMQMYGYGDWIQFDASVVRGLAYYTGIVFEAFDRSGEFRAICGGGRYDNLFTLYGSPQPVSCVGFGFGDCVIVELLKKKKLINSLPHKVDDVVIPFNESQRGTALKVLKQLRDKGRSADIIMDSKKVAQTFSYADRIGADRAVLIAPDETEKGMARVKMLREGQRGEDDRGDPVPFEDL

Measurements from “University of Dundee, Small-Polar-MMV Screening Library” (2021), ChEMBL document CHEMBL3988442.

Values are the deposited “Percent Effect”, in %.
How 0% and 100% were set is not recorded. Most values in the screen are low, and negative values occur.
Compounds were drawn at random from those tested, without regard to their results.

A: 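Enzyme assay of histidyl-tRNA synthetase; the read-out is not stated. Target: Histidine-tRNA ligase, Trypanosoma cruzi CL Brener (UniProt Q4DA54). Compounds at 30 µM. Higher reads as stronger inhibition (inferred: compounds with an IC50 in retests scored well above the rest). Of about 69,000 compounds tested this way, about 31 (0.045%) reached 50% or more in at least one test.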
B: 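ClpP1P2, Mycobacterium tuberculosis (UniProt P9WPC5 and UniProt P9WPC3). Protease assay of ClpP1P2, read by the AMC dye that it sets free. Concentration: 50 µM. Direction is inferred from only a few compounds that gave an IC50; most scored high, so higher reads as stronger inhibition. Most other retested compounds had strongly negative values. Of about 69,000 compounds tested this way, about 10 (0.015%) reached 50% or more in at least one test.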
C: 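Enzyme assay of the cytosolic lysyl-tRNA synthetase in 384-well plates, read by luminescence. Target: Lysine-tRNA ligase, Plasmodium falciparum 3D7 (UniProt Q8IDJ8). Tested at 30 µM. Higher reads as stronger inhibition, judged from the few compounds that gave an IC50. Size under these conditions: about 69,000 compounds, about 49 of them at 50% or above in at least one test.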
D: 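Histidine-tRNA ligase, Leishmania infantum (UniProt A4I591). Enzyme assay of histidyl-tRNA synthetase; the read-out is not stated. Concentration: 30 µM. Direction is inferred from retests: higher values go with stronger inhibition. The assay is labelled LdHisRS but filed under L. infantum. About 69,000 compounds were tested under these conditions; 0.6% (about 410) showed 50% or more at least once.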

| compound | A | B | C | D |
|---|---|---|---|---|
| `COc1ccnc(N2CCCN(C(=O)CCc3cnn(C)c3)CC2)n1` | 5.102 | -12.22 | 3.736 | -2.857 |
| `COCCn1cnnc1C1CCCN(c2cnccn2)C1` (stereo not shown) | 4.478 | 2.562 | 0.8986 | 26.32 |
| `CCCS(=O)(=O)N1CCC2(CC1)CC(N1CCCC1)c1ccccc12` (stereo not shown) | 7.362 | -5.486 | 6.744 | 22.22 |
| `CC(C)NS(=O)(=O)c1cc(C(=O)O)cc(-c2ccc3c(c2)OCO3)c1` | 0 | 2.161 | 3.248 | -1.042 |
| `COc1cccc(-c2ncc(CN3CCOCC(O)C3)s2)c1` (stereo not shown) | -1.818 | -4.081 | 4.46 | 13.33 |
| `CC(C)N(C)S(=O)(=O)N(C)Cc1cnn(C)c1` | 0 | 0.3065 | 4.349 | 13.89 |
| `O=C(CCN1C(=O)CCC1=O)NCC1(c2c(F)cccc2F)CCCC1` | 2.857 | -11.5 | 1.526 | 15.25 |
| `CCC(CO)N(Cc1ccsc1)Cc1c(C)nn(C)c1Cl` (stereo not shown) | 6.061 | 1.187 | 0.8682 | 15.96 |
| `CSc1ccc(-c2nc(CN3CCC(C(N)=O)CC3)c(C)o2)cc1` | -0.8333 | -10.42 | 1.179 | 7.547 |
| `CC1c2ncc(CN3CCN(C)CC3)n2CCN1Cc1cccnc1` (stereo not shown) | -0.5405 | 2.034 | -0.5221 | 15.09 |
| `O=C(Cn1cccn1)Nc1ccc(N2CCCCC2)cc1` | -6.931 | 7.443 | 4.895 | 25 |
| `CC1CN(C)c2ccccc2N(C(=O)c2c[nH]c(C(C)C)n2)C1` (stereo not shown) | -10.78 | -3.045 | -3.768 | 1.266 |
| `NC(=O)c1ccc(C2CCCN2C(=O)CCc2nc3ccccc3s2)s1` (stereo not shown) | 5.263 | -17.7 | -2.302 | 1.613 |
| `CCC[C@@H]1CN(C(=O)c2ccccc2-c2ncc[nH]2)C[C@H]1N(C)C` | 8.247 | 3.413 | 3.506 | -14.29 |
| `CCN1C(=O)C(C#N)=C(C)/C(=C/C2=Cc3ccccc3OC2)C1=O` | -1.754 | -0.6909 | 14.72 | 86.84 |
| `Cc1nn(CC(=O)O)c(C)c1NS(=O)(=O)c1cc2ccccc2s1` | 10.89 | 5.539 | -6.432 | 0 |
| `CN1C[C@@H](C(=O)NC(C)(C)C)[C@@]2(COc3ccc(F)cc3C2=O)C1` | -0.7576 | -10.79 | 0.8349 | 1.408 |
| `O=C(c1cccnc1)N1C[C@H]2CN(Cc3cccc(F)c3)C(=O)[C@H]2C1` | 14.29 | 4.418 | 7.869 | 17.43 |
| `CN1CC2(CCN(Cc3cccc(C#N)c3)CC2)CC1=O` | 0.6494 | -4.429 | 2.198 | 19.35 |
| `CCOCC1CN(Cc2ccc3c(c2)OCO3)Cc2nccn2C1` (stereo not shown) | 3.015 | -25.22 | 0.5163 | 15.96 |
| `CC(C)c1nc(C2CCCN(C(=O)CCn3cncn3)C2)no1` (stereo not shown) | 6.977 | -11.46 | 0.6605 | 10.71 |
| `COCc1nc(C(=O)NS(=O)(=O)c2ccc(OC)c(C)c2)cs1` | 3.614 | -0.6963 | 4.509 | 16 |
| `CC1CCN(C(=O)c2sccc2-n2cnnn2)CC1` | 3.867 | 4.189 | 5.899 | 11.46 |
| `O=C1N[C@H]2OCCC[C@H]2[C@H](c2ccccc2C(=O)O)N1` | 1.149 | 6.819 | -1.267 | 4.317 |
| `CCCOCC1CCN(C(=O)Cn2cccc(C(F)(F)F)c2=O)C1` (stereo not shown) | -1.622 | -6.35 | 3.928 | 11.97 |
| `CCS(=O)(=O)N1CCc2c(cccc2NC(=O)NCCOC)C1` | 4.348 | -3.415 | 10.18 | 22.86 |
| `CCCn1ncc(C(=O)NC2CCN(CC3CCCO3)CC2)c1C` (stereo not shown) | 3.247 | 12.37 | 0.3497 | 11.29 |
| `CC(NC(=O)c1ccsc1)c1ccc2c(c1)NC(=O)CO2` (stereo not shown) | 6.509 | -19.2 | -0.4466 | 16.07 |
| `CC(=O)N(Cc1ncc(C(C)C)o1)C1CCN(Cc2cc(C)on2)C1` (stereo not shown) | 3.79 | -3.696 | -1.105 | 9.174 |
| `COC(=O)C(C)(C)NC(=O)c1cnc(Cc2ccc(F)cc2)s1` | 8.333 | 2.43 | 2.928 | 20.54 |
| `CC(c1nc(C2CC2)no1)N(C)Cc1ccc(C#N)cc1` (stereo not shown) | 7.182 | -0.5357 | 1.42 | 12.68 |
| `CC(C)[C@@H](C)NC(=O)N1CCn2nc(C(=O)NCCN(C)C)cc2C1` | 3.061 | -10.14 | -2.933 | 4.839 |
| `CN(Cc1ccccc1)C(=O)CS(=O)(=O)Cc1ccc(Cl)c(Cl)c1` | 3.361 | -3.235 | 4.598 | 8.264 |
| `CC(c1cccnc1)N(C)C(=O)NCCOc1ccc(C#N)cc1` (stereo not shown) | 0.9901 | -5.429 | -4.348 | 9.524 |
| `CS(=O)(=O)NCC1CCCN(C(=O)Nc2cccc3ccccc23)C1` (stereo not shown) | 14.07 | 11.04 | 5.06 | 32.98 |